Measurements as given in patent US7767240B2, “Microbiological control in poultry processing” (priority 2001, dated 2010).

Assay: Skin pigmentation, Minolta Color Meter (Example 6)
Parameters: species or system chicken

## CC1(C)C(=O)N(Br)C(=O)N1Br [DBDMH, 1,3-dibromo-5,5-dimethylhydantoin]
20 ppm group, before chilling
  Mean Pre-Chill Minolta Value L: 58.54 a
20 ppm, after chilling
  Mean Post-Chill Minolta Value L: 53.74 a
